Test results reported in PMC8631636.

Sequences of proteins named here, by UniProt entry; tags and fusion partners are left off.
UniProt Q8BLR2: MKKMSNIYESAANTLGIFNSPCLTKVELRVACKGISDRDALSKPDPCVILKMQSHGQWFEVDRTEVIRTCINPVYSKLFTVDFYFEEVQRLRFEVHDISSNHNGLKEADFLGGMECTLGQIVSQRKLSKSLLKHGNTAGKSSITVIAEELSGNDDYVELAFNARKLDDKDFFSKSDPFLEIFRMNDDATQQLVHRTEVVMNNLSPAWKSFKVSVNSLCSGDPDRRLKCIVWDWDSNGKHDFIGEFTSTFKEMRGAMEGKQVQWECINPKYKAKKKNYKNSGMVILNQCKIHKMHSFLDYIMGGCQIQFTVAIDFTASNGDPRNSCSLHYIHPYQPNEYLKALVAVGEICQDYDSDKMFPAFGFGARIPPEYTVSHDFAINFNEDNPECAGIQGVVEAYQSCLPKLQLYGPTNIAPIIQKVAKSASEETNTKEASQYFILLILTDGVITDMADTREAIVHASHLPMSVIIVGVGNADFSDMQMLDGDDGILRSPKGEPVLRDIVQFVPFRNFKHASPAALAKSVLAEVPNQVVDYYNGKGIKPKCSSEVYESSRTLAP
UniProt P62259: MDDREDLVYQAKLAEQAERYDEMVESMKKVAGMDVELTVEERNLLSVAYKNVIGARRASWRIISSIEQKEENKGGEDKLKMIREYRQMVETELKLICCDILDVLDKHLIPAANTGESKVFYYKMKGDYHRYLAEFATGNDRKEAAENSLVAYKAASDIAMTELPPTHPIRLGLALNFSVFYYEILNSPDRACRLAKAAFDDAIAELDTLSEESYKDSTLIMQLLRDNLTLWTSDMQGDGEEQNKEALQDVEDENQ
UniProt P61264: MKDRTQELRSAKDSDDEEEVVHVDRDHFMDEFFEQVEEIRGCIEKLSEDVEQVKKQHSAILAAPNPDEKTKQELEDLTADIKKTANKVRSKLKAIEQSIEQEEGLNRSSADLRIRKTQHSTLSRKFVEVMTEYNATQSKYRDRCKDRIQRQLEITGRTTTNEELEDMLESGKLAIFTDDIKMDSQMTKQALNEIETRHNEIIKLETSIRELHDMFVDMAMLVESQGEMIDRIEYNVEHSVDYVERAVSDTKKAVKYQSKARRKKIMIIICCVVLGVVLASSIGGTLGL
UniProt Q9JIS5: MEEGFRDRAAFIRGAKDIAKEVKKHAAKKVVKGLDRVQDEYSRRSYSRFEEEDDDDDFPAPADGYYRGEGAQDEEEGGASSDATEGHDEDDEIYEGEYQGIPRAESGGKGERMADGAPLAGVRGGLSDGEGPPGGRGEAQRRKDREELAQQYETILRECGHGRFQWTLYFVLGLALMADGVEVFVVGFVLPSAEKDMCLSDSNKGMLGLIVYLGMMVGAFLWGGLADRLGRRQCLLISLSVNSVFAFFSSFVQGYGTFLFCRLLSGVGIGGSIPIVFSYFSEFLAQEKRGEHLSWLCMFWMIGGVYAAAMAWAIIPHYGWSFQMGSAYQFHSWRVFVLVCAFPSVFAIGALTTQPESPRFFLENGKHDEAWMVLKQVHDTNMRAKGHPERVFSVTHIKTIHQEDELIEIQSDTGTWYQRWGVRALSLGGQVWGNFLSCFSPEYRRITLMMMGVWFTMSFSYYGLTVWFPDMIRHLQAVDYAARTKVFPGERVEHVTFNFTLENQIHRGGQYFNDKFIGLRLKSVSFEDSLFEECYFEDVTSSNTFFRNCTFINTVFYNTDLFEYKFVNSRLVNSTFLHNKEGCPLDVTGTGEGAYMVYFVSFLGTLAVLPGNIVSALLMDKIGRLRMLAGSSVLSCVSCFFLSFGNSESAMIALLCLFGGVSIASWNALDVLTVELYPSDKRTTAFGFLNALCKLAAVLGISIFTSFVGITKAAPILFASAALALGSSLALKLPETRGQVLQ
UniProt P14873: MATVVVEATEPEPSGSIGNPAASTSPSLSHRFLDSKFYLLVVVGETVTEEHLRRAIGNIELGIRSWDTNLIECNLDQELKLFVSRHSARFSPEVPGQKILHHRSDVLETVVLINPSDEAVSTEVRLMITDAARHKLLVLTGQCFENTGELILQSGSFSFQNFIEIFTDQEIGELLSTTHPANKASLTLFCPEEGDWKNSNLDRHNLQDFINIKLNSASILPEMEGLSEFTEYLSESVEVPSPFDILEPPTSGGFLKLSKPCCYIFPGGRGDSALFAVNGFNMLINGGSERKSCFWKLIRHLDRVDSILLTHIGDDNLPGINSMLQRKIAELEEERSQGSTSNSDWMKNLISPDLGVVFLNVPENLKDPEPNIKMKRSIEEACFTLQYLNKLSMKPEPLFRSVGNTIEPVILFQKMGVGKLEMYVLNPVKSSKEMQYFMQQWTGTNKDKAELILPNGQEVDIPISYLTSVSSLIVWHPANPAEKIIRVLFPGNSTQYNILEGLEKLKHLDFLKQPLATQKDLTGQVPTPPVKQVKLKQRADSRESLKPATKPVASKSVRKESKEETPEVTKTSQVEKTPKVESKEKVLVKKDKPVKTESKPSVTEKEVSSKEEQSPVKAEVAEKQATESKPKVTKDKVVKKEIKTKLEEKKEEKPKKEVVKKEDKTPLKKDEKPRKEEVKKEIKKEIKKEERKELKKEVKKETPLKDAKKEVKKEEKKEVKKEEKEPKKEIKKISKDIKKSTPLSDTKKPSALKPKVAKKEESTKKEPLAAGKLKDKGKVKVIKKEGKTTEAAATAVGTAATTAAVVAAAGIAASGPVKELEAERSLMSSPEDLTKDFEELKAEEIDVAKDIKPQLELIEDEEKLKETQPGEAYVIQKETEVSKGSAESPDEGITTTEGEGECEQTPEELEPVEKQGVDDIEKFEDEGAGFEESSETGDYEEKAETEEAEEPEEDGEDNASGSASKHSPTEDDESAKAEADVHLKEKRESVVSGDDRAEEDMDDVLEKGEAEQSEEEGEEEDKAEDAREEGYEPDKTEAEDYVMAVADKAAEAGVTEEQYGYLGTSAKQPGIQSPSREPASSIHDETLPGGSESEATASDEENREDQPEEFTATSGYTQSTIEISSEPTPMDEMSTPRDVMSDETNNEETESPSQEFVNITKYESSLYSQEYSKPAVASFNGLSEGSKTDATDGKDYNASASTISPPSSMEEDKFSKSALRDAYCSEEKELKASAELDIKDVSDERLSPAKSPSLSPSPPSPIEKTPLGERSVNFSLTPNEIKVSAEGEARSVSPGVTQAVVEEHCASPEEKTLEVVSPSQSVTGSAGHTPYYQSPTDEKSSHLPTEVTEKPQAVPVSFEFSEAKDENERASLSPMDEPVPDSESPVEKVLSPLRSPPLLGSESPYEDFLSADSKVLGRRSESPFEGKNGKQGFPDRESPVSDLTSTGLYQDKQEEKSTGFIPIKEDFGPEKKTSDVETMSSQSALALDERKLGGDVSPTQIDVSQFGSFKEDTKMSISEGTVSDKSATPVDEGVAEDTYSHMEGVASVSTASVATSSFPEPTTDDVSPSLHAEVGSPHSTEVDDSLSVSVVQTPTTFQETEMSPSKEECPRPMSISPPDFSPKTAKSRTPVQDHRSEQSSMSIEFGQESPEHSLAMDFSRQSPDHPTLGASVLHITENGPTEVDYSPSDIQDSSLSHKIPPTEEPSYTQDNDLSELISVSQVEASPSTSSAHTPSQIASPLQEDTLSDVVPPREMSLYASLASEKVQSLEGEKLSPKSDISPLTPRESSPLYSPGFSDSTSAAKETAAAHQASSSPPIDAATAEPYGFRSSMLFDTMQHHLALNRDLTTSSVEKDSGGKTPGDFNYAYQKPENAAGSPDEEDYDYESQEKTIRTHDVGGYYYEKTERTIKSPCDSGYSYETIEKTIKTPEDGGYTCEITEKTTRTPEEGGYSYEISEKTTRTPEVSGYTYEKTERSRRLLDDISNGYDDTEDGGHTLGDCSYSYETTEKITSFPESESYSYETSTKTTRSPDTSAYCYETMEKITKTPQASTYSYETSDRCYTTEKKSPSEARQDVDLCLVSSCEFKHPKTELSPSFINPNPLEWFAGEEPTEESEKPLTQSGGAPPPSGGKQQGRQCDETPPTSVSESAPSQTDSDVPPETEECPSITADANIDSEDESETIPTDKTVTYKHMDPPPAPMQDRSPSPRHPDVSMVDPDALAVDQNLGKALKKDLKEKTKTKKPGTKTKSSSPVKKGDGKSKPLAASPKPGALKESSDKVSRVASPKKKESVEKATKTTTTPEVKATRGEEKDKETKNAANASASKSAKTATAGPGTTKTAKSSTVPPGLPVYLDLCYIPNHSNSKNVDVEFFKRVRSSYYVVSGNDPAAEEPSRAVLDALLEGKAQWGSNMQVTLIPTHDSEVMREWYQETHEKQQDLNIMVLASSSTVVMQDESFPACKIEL
UniProt P63101: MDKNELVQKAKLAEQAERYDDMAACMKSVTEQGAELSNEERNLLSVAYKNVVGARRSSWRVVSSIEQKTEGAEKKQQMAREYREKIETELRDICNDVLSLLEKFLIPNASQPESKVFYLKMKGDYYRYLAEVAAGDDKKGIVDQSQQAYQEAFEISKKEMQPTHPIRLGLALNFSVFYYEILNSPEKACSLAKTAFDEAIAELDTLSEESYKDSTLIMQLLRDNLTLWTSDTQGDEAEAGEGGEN

B1: 14-3-3 family member Ywhab (protein, UniProt Q9CQV8 1-246)
chain: MTMDKSELVQKAKLAEQAERYDDMAAAMKAVTEQGHELSNEERNLLSVAYKNVVGARRSSWRVISSIEQKTERNEKKQQMGKEYREKIEAELQDICNDVLELLDKYLILNATQAESKVFYLKMKGDYFRYLSEVASGENKQTTVSNSQQAYQEAFEISKKEMQPTHPIRLGLALNFSVFYYEILNSPEKACSLAKTAFDEAIAELDTLNEESYKDSTLIMQLLRDNLTLWTSENQGDEGDAGEGEN
B2: 14-3-3 family member Ywhaq (protein, UniProt P68254 1-245)
chain: MEKTELIQKAKLAEQAERYDDMATCMKAVTEQGAELSNEERNLLSVAYKNVVGGRRSAWRVISSIEQKTDTSDKKLQLIKDYREKVESELRSICTTVLELLDKYLIANATNPESKVFYLKMKGDYFRYLAEVACGDDRKQTIENSQGAYQEAFDISKKEMQPTHPIRLGLALNFSVFYYEILNNPELACTLAKTAFDEAIAELDTLNEDSYKDSTLIMQLLRDNLTLWTSDSAGEECDAAEGAEN
B3: 14-3-3 family member Ywhag (protein, UniProt P61982 1-247)
chain: MVDREQLVQKARLAEQAERYDDMAAAMKNVTELNEPLSNEERNLLSVAYKNVVGARRSSWRVISSIEQKTSADGNEKKIEMVRAYREKIEKELEAVCQDVLSLLDNYLIKNCSETQYESKVFYLKMKGDYYRYLAEVATGEKRATVVESSEKAYSEAHEISKEHMQPTHPIRLGLALNYSVFYYEIQNAPEQACHLAKTAFDDAIAELDTLNEDSYKDSTLIMQLLRDNLTLWTSDQQDDDGGEGNN

Target: GST-Cpne4 (UniProt Q8BLR2)
Assay: affinity purification with mass spectrometry; GST, GST-Cpne4-vWA or GST-Cpne4 on glutathione magnetic beads incubated overnight at 4°C with cleared mouse retina lysate (50mM Tris-HCl, 150mM NaCl, 1mM EDTA, 0.5% NP40); glutathione elution, SDS-PAGE, LC-MS; three replicates; enrichment over GST at 2-fold change and 0.05 FDR; only the target purified

Molecule	binding
14-3-3 family member Ywhae (from UniProt P62259 1-255)	binds
Syntaxin-1 (from UniProt P61264 1-288)	binds
SV2 (from UniProt Q9JIS5 1-742)	binds
Map1b (from UniProt P14873 1-2464)	binds
14-3-3 family member Ywhaz (from UniProt P63101 1-245)	binds
B1	binds
B2	binds
B3	binds

Results are given in words; binding and its absence hold for the method and conditions named. Binding seen in cells or lysates may run through a third protein. A yes stands for co-enrichment or nearness to the bait. Other partners may have been found.
